Reference: doi:10.1101/149351
These are yes or no findings as the source states them, for the method shown. In cells and extracts the contact can be indirect. Some binding calls cover weakened binding; strength is not graded here.

By UniProt entry, the sequences of proteins in these tests, tags left out.
UniProt P35222: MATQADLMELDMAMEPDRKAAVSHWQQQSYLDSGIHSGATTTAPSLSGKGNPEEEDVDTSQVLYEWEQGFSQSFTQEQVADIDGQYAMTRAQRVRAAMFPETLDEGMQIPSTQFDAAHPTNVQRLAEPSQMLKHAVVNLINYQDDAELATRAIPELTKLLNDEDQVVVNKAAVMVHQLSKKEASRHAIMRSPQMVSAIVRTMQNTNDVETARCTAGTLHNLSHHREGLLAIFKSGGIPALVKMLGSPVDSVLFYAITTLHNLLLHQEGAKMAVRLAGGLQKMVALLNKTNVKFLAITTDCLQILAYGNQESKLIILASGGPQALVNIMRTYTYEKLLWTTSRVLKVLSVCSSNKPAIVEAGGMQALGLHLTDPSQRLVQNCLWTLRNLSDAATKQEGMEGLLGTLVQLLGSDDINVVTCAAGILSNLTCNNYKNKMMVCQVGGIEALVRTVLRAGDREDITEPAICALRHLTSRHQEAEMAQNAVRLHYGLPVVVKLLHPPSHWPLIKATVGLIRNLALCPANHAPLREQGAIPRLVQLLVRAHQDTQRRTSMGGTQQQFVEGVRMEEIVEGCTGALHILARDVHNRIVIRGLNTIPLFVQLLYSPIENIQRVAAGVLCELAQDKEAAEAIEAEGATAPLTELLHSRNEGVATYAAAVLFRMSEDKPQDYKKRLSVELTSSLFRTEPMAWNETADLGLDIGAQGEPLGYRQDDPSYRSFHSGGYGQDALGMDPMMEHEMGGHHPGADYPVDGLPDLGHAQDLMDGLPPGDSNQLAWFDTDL
UniProt Q9P219: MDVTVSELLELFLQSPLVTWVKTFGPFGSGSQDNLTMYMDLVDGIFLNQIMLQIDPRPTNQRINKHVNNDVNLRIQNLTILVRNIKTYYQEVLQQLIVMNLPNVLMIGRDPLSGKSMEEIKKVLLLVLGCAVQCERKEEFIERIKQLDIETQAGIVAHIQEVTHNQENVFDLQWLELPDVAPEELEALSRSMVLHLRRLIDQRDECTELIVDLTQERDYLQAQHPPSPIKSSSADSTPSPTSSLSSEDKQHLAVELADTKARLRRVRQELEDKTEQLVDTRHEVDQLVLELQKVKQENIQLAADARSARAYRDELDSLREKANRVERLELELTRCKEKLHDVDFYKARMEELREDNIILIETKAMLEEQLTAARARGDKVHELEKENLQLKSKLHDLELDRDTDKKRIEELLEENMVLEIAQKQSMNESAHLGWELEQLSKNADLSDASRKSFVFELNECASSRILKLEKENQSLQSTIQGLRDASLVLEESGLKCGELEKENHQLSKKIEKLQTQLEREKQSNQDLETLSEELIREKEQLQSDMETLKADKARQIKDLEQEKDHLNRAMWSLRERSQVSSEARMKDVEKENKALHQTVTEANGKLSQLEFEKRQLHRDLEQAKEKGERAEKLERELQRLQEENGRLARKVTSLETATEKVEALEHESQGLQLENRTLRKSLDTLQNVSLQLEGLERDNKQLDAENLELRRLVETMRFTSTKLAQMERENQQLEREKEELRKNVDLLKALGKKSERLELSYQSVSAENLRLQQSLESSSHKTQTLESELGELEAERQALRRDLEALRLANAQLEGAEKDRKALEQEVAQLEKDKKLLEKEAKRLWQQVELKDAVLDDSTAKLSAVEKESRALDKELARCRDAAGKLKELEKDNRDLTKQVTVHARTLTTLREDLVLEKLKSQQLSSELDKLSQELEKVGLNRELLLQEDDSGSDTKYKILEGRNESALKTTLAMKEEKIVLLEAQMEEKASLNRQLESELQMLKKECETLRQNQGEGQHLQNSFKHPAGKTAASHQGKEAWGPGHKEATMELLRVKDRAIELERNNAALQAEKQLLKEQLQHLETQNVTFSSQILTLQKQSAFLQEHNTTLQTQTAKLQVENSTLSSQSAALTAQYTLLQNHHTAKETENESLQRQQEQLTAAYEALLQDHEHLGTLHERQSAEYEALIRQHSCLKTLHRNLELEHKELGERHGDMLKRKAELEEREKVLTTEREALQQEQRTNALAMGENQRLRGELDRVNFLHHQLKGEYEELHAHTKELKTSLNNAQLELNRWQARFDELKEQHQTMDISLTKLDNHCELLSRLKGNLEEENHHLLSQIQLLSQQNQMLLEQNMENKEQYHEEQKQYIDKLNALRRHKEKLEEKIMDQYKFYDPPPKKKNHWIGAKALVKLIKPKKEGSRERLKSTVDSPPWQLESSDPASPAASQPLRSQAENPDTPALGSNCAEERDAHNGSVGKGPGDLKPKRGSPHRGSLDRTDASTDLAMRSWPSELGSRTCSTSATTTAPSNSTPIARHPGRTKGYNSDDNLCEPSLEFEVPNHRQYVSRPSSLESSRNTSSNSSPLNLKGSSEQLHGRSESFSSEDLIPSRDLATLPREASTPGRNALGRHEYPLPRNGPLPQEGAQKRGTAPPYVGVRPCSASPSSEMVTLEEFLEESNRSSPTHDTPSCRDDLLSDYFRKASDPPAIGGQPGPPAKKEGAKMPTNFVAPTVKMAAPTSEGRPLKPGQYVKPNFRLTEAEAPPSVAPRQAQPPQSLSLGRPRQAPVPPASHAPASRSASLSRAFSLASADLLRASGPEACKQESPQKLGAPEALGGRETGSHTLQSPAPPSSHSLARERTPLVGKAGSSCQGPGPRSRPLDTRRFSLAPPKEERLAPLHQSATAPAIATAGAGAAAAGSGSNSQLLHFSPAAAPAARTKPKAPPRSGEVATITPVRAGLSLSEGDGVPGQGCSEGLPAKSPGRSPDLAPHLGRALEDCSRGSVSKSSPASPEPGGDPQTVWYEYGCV

Biological target: β-catenin (human (endogenous in HeLa)) (UniProt P35222)
Experiment: co-IP

- binding: binds
Substance: myc-Daple-WT (from UniProt Q9P219 1-2028)
